These results are taken from article PMC4426667.

Results are given in words; binding and its absence hold for the method and conditions named. Binding seen in cells or lysates may run through a third protein. Some entries that bind do so weakly or less than the wild type. Sequences can lack the tags named with a protein.

In assay [1] the target is T1, FLAG-TRIM23 (tripartite motif protein 23), expressed in HEK293T cells (human) (UniProt P36406).
T1 sequence: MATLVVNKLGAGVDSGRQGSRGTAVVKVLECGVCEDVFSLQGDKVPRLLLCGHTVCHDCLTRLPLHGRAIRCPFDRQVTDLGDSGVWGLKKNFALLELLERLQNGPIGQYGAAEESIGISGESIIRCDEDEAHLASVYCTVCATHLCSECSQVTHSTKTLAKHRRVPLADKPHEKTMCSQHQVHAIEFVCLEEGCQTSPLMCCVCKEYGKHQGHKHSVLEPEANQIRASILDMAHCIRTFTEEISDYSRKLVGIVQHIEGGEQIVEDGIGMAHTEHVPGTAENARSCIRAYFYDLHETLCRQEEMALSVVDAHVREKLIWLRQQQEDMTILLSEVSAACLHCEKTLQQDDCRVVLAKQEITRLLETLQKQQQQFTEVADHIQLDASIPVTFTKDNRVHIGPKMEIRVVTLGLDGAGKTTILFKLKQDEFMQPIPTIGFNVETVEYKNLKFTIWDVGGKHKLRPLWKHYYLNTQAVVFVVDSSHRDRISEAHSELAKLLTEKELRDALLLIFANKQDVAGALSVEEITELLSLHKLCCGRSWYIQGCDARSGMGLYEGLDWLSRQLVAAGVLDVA
The assay can be described thus: co-IP; HEK293T cells transfected with FLAG-TRIM23 and HA-PPARγ2; lysis in 50 mM Tris-HCl pH 7.4, 150 mM NaCl, 1% Triton X-100; immunoprecipitation with anti-FLAG antibody, blot with anti-HA; also with or without 1 μM troglitazone.

The target in assay [2] is T2, FLAG-TRIM23, stably expressed in 3T3-L1 cells (human) (UniProt P36406).
T2 sequence: T1 sequence
In words: co-IP; 3T3-L1 cells stably expressing FLAG-TRIM23, differentiated, harvested at day 6; whole cell lysates immunoprecipitated with anti-FLAG antibody, blot with anti-PPARγ.

Consider “HA-PPARγ2 (peroxisome proliferator-activated receptor γ, isoform 2), expressed in HEK293T cells (from UniProt P37238-1 1-505)”, for which the binding result in assay [1] was “binds”.

In the case of “endogenous PPARγ2 of differentiated 3T3-L1 cells (from UniProt P37238-1 1-505)”, the binding result in assay [2] was “binds”.
